Data reported in patent US20160122327A1 (priority 2013, published 2016).
Some results were stated once for a whole list of compounds, not compound by compound.

How the values were obtained:
Assay type in all cases: in vivo
[1] = tested on: Septoria tritici; experiment: Glass house trial: control of leaf blotch on wheat (SEPTTR_P1); conditions: wheat seedlings, 300 ppm spray, protective P1, visual assessment of leaves after 4 weeks
[2] = tested on: Blumeria graminis f. sp. tritici; experiment: Glass house trial: control of powdery mildew on wheat (ERYSGT_P1); conditions: 300 ppm spray, protective P1, visual assessment after 7 days
[3] = tested on: Puccinia recondita; experiment: Glass house trial: control of brown rust on wheat (PUCCRT_P1); conditions: wheat seedlings, 300 ppm spray, protective P1, visual assessment after 6 days in greenhouse chamber
[4] = tested on: Botrytis cinerea; experiment: Glass house trial: control of grey mold on green pepper (BOTRCI_P1); conditions: green pepper seedlings, 300 ppm spray, protective P1, visual assessment after 5 days
[5] = tested on: Phakopsora pachyrhizi; experiment: Glass house trial: control of soy bean rust on soy beans (PHAKPA_K1); conditions: soy bean seedlings, 300 ppm spray, curative K1, visual assessment after 14 days

SMILES	infection compared to untreated plants [1] [%]	infection compared to untreated plants [2] [%]	infection compared to untreated plants [3] [%]	infection compared to untreated plants [4] [%]	infection compared to untreated plants [5] [%]
COC(=O)NCc1cc(COc2ccn(-c3ccc(C(F)(F)F)cc3)n2)ccc1C [F-30]	≤ 30				
COC(=O)NCc1cc(COc2cc(C(F)(F)F)nc(OC)n2)ccc1Cl [F-17]	≤ 30	≤ 30			
COC(=O)NCc1cc(COc2ccn(-c3ccc(F)cc3F)n2)ccc1C [F-24]	≤ 30		≤ 30		
COC(=O)NNc1cc(COc2cc(C(F)(F)F)nc(C3CC3)n2)ccc1Cl [F-35]	≤ 30	≤ 30	≤ 30		
COC(=O)NCc1cc(COc2ccn(-c3ccc(F)cc3Cl)n2)ccc1Cl [F-46]	≤ 30	≤ 30	≤ 30		
COC(=O)NCc1cc(COc2ccn(-c3ccc(C)cc3)n2)ccc1F [F-52]	≤ 30				
COC(=O)NNc1cc(COc2ccn(-c3ccc(Cl)cn3)n2)ccc1Cl [F-34]	≤ 30				
COC(=O)NCc1cc(COc2ccc(C=NOCC=CCl)cc2)ccc1Cl [F-20]		≤ 30			
COC(=O)NCc1cc(COc2ccn(-c3cccc(C(F)(F)F)c3)n2)ccc1Cl [F-21]		≤ 30	≤ 30		
COC(=O)NCc1cc(COc2ccn(-c3ccc(F)c(C)c3)n2)ccc1F [F-49]	≤ 30				
COC(=O)NCc1cc(COc2ccn(-c3ccc(Cl)cn3)n2)ccc1C [F-27]	≤ 30				
COC(=O)NCc1cc(COc2cccc(C)n2)ccc1Cl [F-4]	≤ 30		≤ 30	≤ 30	
CO/N=C(\C)c1ccc(OCc2ccc(Cl)c(NNC(=O)OC)c2)cc1 [F-6, Methyl N-[2-chloro-5-[[4-[(E)-N-methoxy-C-methyl-carbonimidoyl]phenoxy]methyl]anilino]carbamat]	≤ 30	≤ 30	≤ 30	≤ 30	≤ 30
COC(=O)NCc1cc(CCc2ccn(-c3ccc(Cl)cc3)n2)ccc1Cl [F-22]	≤ 30		≤ 30		
COC(=O)NNc1cc(COc2ccc(-c3ccc(F)cc3F)cc2)ccc1Cl [F-37]	≤ 30	≤ 30			
C=CCON=C(C)c1ccc(OCc2ccc(C)c(CNC(=O)OC)c2)cc1 [F-31]	≤ 30	≤ 30	≤ 30	≤ 30	
COC(=O)NCc1cc(COc2ccn(-c3ccccc3Cl)n2)ccc1F [F-55]	≤ 30				
COC(=O)NCc1cc(COc2ccn(-c3ccc(Cl)cc3)n2)ccc1F [F-57]	≤ 30				
COC(=O)NCc1cc(COc2ccn(-c3ccc(I)cc3Cl)n2)ccc1F [F-48]	≤ 30				
COC(=O)NCc1cc(COc2ccc(-c3ccc(F)cc3F)cc2)ccc1C [F-32]	≤ 30	≤ 30	≤ 30		
CON=C(C)c1ccc(OCc2ccc(Cl)c(CNC(=O)OC)c2)cc1 [F-5]	≤ 30	≤ 30		≤ 30	
COC(=O)NCc1cc(COc2ccn(-c3ccc(C)c(C)c3)n2)ccc1C [F-25]	≤ 30		≤ 30		
COC(=O)NCc1cc(COc2ccn(-c3ccc(F)c(Cl)c3)n2)ccc1F [F-47]	≤ 30	≤ 30			
COC(=O)NCc1cc(COc2ccn(-c3ccc(Cl)cc3)n2)ccc1Cl [F-3]	≤ 30				
COC(=O)NNc1cc(CCc2c(F)cc(F)cc2F)ccc1Cl [F-7, Methyl 2-(2-chloro-5-(2,4,6-trifluorophenethyl)phenyl)hydrazine-1-carboxylate]		≤ 30	≤ 30		
COC(=O)NCc1cc(COc2cccc(C3CC3)n2)ccc1Cl [F-16]	≤ 30				
